No constants are given. Whether binding was seen depends on the method and setting. Some entries that bind do so weakly or less than the wild type.
Columns and labels:
mouse LOXL2 (mouse) [1] = molecular target: mouse LOXL2 (mouse) (UniProt P58022); test: method not named (FIG. 8, Panel p)
[2] = molecular target: T1, human lysyl oxidase-like 2 (LOXL2) (human, UniProt Q9Y4K0 26-774); test: Western blot and ELISA (FIG. 8, Panels m, n)
T1 sequence (looked up): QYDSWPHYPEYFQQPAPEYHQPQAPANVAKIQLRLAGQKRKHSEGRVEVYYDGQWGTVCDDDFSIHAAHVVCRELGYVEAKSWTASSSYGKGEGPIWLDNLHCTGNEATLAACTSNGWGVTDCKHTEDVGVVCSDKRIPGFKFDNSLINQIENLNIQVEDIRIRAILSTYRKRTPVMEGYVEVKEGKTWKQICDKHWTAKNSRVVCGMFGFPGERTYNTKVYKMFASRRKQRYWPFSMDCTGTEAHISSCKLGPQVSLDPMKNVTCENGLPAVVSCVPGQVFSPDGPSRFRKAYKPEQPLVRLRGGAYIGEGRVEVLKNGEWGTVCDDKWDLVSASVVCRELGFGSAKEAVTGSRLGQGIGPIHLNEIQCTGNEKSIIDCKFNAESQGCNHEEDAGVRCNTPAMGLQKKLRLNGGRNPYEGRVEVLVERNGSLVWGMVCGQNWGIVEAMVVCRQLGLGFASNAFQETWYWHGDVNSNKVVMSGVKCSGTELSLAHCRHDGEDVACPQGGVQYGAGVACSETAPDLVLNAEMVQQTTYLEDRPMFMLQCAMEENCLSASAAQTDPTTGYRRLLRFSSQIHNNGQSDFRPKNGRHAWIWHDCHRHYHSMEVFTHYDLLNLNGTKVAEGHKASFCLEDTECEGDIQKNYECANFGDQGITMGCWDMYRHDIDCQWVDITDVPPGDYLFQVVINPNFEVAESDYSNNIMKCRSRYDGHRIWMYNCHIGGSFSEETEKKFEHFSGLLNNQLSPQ

Chains of the proteins cited; added tags and fusions are not shown. Residues count along the entry.
UniProt P58022, residues 26-776: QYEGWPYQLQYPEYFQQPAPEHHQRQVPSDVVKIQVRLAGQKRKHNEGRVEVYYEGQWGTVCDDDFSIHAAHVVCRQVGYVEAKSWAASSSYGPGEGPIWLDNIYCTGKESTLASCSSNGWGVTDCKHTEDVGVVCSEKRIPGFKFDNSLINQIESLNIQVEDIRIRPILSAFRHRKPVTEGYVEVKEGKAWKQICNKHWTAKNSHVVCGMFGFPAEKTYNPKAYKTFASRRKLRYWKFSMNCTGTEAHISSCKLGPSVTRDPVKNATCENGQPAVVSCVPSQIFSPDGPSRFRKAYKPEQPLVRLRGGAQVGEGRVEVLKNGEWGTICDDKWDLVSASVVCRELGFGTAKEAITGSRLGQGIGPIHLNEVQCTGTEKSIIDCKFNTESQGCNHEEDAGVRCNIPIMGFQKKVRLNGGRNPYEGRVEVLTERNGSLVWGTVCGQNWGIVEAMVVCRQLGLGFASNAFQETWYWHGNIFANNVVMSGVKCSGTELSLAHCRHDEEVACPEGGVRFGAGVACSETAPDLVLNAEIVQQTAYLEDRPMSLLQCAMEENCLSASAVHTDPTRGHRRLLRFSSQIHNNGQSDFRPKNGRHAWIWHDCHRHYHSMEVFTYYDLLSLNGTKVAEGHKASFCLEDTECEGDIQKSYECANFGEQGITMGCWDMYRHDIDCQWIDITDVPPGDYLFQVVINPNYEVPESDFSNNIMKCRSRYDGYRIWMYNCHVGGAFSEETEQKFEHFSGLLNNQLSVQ

[3] = molecular target: T1, human lysyl oxidase-like 2 (LOXL2); test: immunofluorescence on Hs578t tumor cell cultures
[4] = molecular target: T1, human lysyl oxidase-like 2 (LOXL2); test: binding curve, method not named (FIG. 8, panel P)
mouse LOXL2 (mouse) [5] = molecular target: mouse LOXL2 (mouse) (UniProt P58022); test: binding curve, method not named (FIG. 8, panel P)
[6] = molecular target: T1, human lysyl oxidase-like 2 (LOXL2); test: ELISA, AB0023 titrated on hLOXL2 [Cont. 2) panel n]
[7] = molecular target: T1, human lysyl oxidase-like 2 (LOXL2); test: ELISA, AB0023 titrated on human LOXL2 [Cont. 3) panel p]
mouse LOXL2 (mouse) [8] = molecular target: mouse LOXL2 (mouse) (UniProt P58022); test: ELISA, AB0023 titrated on mouse LOXL2 [Cont. 3) panel p]
[9] = molecular target: T1, human lysyl oxidase-like 2 (LOXL2); test: immunofluorescence of Hs578t cultures, LOXL2 in the extracellular matrix
[10] = molecular target: T1, human lysyl oxidase-like 2 (LOXL2); test: Western blot of LOX, LOXL1, LOXL2, LOXL3 and LOXL4 probed with AB0023 [Cont. 2) panel m]
[11] = molecular target: T1, human lysyl oxidase-like 2 (LOXL2); test: immunofluorescence of HS578t cells after non-targeting or LOXL2 siRNA [Cont. 1) panels e, f]

Measured: binding

B1: anti-LOXL2 monoclonal antibody AB0023 (antibody, V domains shown)
VH: QVQLQQSGAELVRPGTSVKVSCKASGYAFTYYLIEWVKQRPGQGLEWIGVINPGSGGTNYNEKFKGKATLTADKSSSTAYMQLSSLTSDDSAVYFCARNWMNFDYWGQGTTLTVSS
VL: DIVMTQAAPSVSVTPGESVSISCRSSKSLLHSNGNTYLYWFLQRPGQSPQFLIYRMSNLASGVPDRFSGSGSGTAFTLRISRVEAEDVGVYYCMQHLEYPYTFGGGTKLEIK
notes: Mouse monoclonal antibody from a hybridoma, raised against full-length LOXL2 and purified from ascites; also called mouse anti-human LOXL2 antibody; LOXL2-specific monoclonal antibody
binds: all assays above

— patent publication US20110076272A1, “THERAPEUTIC METHODS AND COMPOSITIONS” (priority 2009, published 2011)
